According to paper PMC6888645:
No constants are given. Whether binding was seen depends on the method and setting. In cells and extracts the contact can be indirect. Some binding calls cover weakened binding; strength is not graded here.

The chains behind the UniProt entries cited, without tags or fusion partners.
UniProt Q01518: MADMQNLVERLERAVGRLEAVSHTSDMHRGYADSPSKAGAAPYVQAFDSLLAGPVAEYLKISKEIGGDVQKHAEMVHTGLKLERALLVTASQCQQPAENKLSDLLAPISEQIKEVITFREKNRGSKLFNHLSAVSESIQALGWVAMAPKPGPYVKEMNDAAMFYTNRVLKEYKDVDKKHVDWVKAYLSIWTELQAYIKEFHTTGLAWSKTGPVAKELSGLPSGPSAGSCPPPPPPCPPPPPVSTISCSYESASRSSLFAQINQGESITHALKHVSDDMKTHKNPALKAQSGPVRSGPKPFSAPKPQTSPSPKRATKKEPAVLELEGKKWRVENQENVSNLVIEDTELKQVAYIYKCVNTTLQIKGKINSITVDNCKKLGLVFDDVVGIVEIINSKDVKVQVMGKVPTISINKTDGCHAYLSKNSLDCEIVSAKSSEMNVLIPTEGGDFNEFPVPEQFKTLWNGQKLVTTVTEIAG
UniProt Q9Y281: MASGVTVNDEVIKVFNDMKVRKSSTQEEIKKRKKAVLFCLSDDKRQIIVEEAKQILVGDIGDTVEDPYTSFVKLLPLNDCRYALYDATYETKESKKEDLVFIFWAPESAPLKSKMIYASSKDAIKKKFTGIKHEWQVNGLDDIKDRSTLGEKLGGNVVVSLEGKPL
UniProt P23528: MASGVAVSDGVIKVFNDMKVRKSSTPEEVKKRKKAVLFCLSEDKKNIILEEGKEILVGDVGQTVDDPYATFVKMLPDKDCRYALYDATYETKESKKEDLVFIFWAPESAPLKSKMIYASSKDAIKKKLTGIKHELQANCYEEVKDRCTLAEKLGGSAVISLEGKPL

Biological target: cyclase-associated protein 1 (native CAP1 in Hs 578T cells) (human (endogenous in Hs 578T)) (UniProt Q01518)
Test: proximity ligation; Duolink in situ PLA on fixed and permeabilised Hs 578T cells with anti-CAP1 and anti-CFL1 or anti-CFL2 primary antibodies; single primary antibody as negative control; proximity <40 nm

Row | Substance | binding
1 | cofilin 2 (native CFL2 in Hs 578T cells) (from UniProt Q9Y281 1-166) | binds
2 | non-muscle cofilin 1 (native CFL1 in Hs 578T cells) (from UniProt P23528 1-166) | binds
